Experimental findings from US20210301293 are described below.

Chains of the proteins cited; added tags and fusions are not shown. Residues count along the entry.
UniProt P09382, 2-135: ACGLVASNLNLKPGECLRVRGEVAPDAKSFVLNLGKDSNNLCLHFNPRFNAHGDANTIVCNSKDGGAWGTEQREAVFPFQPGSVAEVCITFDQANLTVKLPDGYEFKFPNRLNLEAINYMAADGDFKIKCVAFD

For some assays here: No signal at the amounts used counts as a negative.

In series [1] the target is human galectin-1 (hGal1), alkylated (Homo sapiens) (UniProt P09382). Nature of the series: binding assay. The following applies: thermal shift assay; Tm change not significant; also no hemagglutination effect (FIG. 15); purified recombinant protein; single-stranded DNA.
The target in series [2] is human galectin-1 (hGal1), native (Homo sapiens) (UniProt P09382). Nature of the series: inhibition of the protein. Particulars: purified recombinant protein, single-stranded DNA.
For series [3], the target named is human galectin-1 (hGal1), alkylated (Homo sapiens) (UniProt P09382). Nature of the series: inhibition of the protein. The following applies: no effect on hemagglutination by alkylated Gal1; purified recombinant protein; single-stranded DNA; dose not given here.
[4] abbreviates: hemagglutination inhibition, stated similar to SEQ ID NO 4 and 9, dose not given here.

Turning to “CTGACACAGCAGGTTGGTGCCAACTAACACCATAAGAATACCCCGCTCCAAATAAGCCCACACGTAAACCCGAGTCGAGCAATCTCGAAAT [SEQ ID NO. 4 (AptaGal1)]”, the binding result in series [1] is recorded as “no binding”.

In the case of “AGCTGACACAGCAGGTTGGTGCCAACAAGAAAAGAAACCGTTACAGAAGACACTACAGAATAAGTGAAAAGCCGAGTCGAGCAATCTCGAAAT [SEQ ID NO. 10]”, the “functional effect of the aptamer” value in series [2] (setting [4]) is listed as “active”.

Turning to “AGCTGACACAGCAGGTTGGTGCCCAAAAGAGCCAATCCACGACGACACCCCAAAAACCATATCACGAATACCCGAGTCGAGCAATCTCGAAAT [SEQ ID NO. 9]”, the “functional effect of the aptamer” value in series [3] is recorded as “not active”; in series [2] (hemagglutination inhibited from 10 uM aptamer, 5 uM hGal1), “active”.

Take “AGCTGACACAGCAGGTTGGTGCGCCCAATACAGGCGCAGTATCTGTCCGTGGGCCGGGTAAAAGTTACGGACCGAGTCGAGCAATCTCGAAAT [SEQ ID NO. 12]”: in series [2] (setting [4]), the “functional effect of the aptamer” value is listed as “active”.
